Here are results for one molecule from article PMC5533775.

No constants are given. Whether binding was seen depends on the method and setting. Binding seen in cells or lysates may run through a third protein. Some entries that bind do so weakly or less than the wild type. Where a sequence is shown, tags or fusion partners need not be part of it.

For the assay, the target named is T1, Myc-tagged Tbx1 (UniProt P70323).
T1 sequence: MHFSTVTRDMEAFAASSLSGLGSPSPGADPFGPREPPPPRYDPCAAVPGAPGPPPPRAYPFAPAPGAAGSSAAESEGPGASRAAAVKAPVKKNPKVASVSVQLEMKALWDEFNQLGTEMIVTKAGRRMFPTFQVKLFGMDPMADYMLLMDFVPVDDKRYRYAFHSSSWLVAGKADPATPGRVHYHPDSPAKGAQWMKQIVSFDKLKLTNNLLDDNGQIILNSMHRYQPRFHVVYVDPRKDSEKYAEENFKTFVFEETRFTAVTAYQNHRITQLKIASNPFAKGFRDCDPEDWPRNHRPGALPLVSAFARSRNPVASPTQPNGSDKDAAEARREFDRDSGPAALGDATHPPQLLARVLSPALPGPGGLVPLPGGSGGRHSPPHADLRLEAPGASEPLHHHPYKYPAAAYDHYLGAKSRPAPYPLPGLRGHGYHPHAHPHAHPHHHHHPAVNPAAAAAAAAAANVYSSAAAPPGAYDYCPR
Briefly: co-IP; COS1 cells transfected with FLAG-tagged Foxc1/Foxc2 or Myc-tagged Tbx1; lysis buffer 20 mM Tris-HCl pH 8.0, 137 mM NaCl, 1% NP-40, 2 mM EDTA; precipitated with anti-c-Myc antibody (9E10) and protein G Sepharose; blotted with anti-Myc or anti-DDDDK-tag.

B1: FLAG-tagged Foxc1 (protein, UniProt Q61572 1-553)
chain: MQARYSVSSPNSLGVVPYLGGEQSYYRAAAAAAGGGYTAMPAPMSVYSHPAHAEQYPGSMARAYGPYTPQPQPKDMVKPPYSYIALITMAIQNAPDKKITLNGIYQFIMDRFPFYRDNKQGWQNSIRHNLSLNECFVKVPRDDKKPGKGSYWTLDPDSYNMFENGSFLRRRRRFKKKDAVKDKEEKGRLHLQEPPPPQAGRQPAPAPPEQAEGSAPGPQPPPVRIQDIKTENGTCPSPPQPLSPAAALGSGSAATVPKIESPDSSSSSLSSGSSPPGSLPSARPLSLDAAEPAPPPQPAPPPHHSQGFSVDNIMTSLRGSPQGSAAELGSGLLASAAASSRAGIAPPLALGAYSPGQSSLYSSPCSQSSSAGSSGGGGGGGGGGGGSSSAAGTGGAATYHCNLQAMSLYAAGERGGHLQGPAGGAGSAAVDDPLPDYSLPPATSSSSSSLSHGGGGQEASHHPASHQGRLTSWYLNQAGGDLGHLASAAAAAAAAGYPGQQQNFHSVREMFESQRIGLNNSPVNGNSSCQMAFPASQSLYRTSGAFVYDCSKF
Consider B1, for which the binding result is on record as “binds”.
